Source: PubChem BioAssay AID1259254 (NCATS, 2017)
Here is a random part of about 59,000 reagents tested. Of all reagents, about 1,550 (2.6%) are marked active. 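G2 share is only a proxy for re-replication; each gene was hit by three separate siRNAs, and active genes were retested.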 A number with no mark means an inactive call. The numbers tell different reagents against one gene apart. Not all columns of the deposit are shown. The record does not give: the amount of reagent.

Purpose: 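Gene knock-downs that lead to re-replication, shown by excess G2 DNA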 (primary screen)
Cell system: human HCT116 colorectal cancer cells
Reagents: single siRNA against human genes
Timing: 3 days
Measured: 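Nuclei stained with Hoechst and imaged; cell-cycle phase assigned by DNA content; G2 share scaled per plate, non-targeting siRNA 0%, GMNN siRNA 100%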
Reading the numbers: G2 robust z-score: higher = more G2 cells, more excess DNA replication
Active means: 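Active siRNAs have a G2 robust z of 5 or more median absolute deviations over the median, which in these data means about 38% or higher of GMNN control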

G2 robust z-score, by gene knocked down and reagent
SAPCD2 (GeneID 89958): #1 1.93; #2 6.28 (active); #3 -0.192
STK38L (GeneID 23012): #1 1.35; #2 0.382; #3 -0.955
CRTAC1 (GeneID 55118): #1 -0.475; #2 -1.43; #3 3.99
NR4A3 (GeneID 8013): #1 1.49; #2 -0.525; #3 -0.011
ATP11A (GeneID 23250): #1 0.568; #2 -1.42; #3 -0.58
CHORDC1 (GeneID 26973): #1 0.978; #2 0.347; #3 0.884
PPP1R16A (GeneID 84988): #1 -0.457; #2 -0.283; #3 2.96
UGT3A2 (GeneID 167127): #1 -0.582; #2 0.913; #3 0.139
LOC400940 (GeneID 400940): #1 -0.0153; #2 1.31; #3 0.0578
CD160 (GeneID 11126): #1 0.296; #2 0.02; #3 0.47

Copied from above, 3 entries:
G2 robust z-score, by gene knocked down and reagent
NR4A3 (GeneID 8013): #1 1.49; #2 -0.525; #3 -0.011
